Source: publication PMC10293252
No constants are given. Whether binding was seen depends on the method and setting. In cells and extracts the contact can be indirect. Some results given as binding are weak or reduced against the parent protein; the word gives no strength. For part of these data: Sequences can lack the tags named with a protein.

Protein sequences, listed by entry. Tags and fused reporters are not part of them.
UniProt P29466: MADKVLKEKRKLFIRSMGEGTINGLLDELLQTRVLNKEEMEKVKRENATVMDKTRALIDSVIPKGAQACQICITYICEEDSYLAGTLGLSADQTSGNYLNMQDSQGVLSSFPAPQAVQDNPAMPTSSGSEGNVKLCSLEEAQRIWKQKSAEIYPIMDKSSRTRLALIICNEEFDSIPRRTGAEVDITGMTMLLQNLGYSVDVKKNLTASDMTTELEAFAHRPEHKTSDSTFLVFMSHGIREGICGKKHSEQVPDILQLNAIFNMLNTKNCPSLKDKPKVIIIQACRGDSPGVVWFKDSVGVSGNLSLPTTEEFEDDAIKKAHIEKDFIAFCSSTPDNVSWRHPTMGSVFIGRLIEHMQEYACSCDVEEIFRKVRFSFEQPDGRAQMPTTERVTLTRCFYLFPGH

What was measured:
NOD1-mOrange [1] = target: T1, NOD1-mOrange (UniProt Q9Y239); assay: condition: only cells not stimulated with H. pylori; FRET or BRET; FLIM-FRET in live shNOD1 AGS cells transfected with NOD1-mOrange and caspase-1-GFP, left untreated (no H. pylori)
T1 sequence: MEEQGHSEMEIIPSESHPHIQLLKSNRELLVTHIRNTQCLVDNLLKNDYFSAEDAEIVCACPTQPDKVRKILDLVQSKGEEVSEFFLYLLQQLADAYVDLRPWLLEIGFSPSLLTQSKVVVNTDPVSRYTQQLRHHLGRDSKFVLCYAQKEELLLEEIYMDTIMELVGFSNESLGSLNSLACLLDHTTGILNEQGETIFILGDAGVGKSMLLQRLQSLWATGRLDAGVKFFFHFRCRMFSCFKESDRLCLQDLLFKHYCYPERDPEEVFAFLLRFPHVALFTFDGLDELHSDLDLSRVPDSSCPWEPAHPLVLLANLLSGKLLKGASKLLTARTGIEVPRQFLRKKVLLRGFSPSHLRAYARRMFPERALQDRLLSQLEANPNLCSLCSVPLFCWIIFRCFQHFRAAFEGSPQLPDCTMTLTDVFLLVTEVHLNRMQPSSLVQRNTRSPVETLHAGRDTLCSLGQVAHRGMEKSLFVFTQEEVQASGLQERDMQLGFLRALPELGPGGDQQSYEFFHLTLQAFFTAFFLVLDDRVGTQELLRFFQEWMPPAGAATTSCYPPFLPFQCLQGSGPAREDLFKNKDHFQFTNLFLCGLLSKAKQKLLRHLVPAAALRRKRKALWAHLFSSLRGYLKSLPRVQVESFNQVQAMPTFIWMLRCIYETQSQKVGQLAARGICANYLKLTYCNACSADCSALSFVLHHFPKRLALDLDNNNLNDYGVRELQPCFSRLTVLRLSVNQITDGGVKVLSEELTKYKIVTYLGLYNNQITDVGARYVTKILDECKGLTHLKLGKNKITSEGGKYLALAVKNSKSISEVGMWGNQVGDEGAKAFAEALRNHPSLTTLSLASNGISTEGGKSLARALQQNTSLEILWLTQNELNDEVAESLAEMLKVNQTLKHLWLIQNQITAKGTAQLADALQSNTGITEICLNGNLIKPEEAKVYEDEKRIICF

NOD1-mOrange [2] = target: T1, NOD1-mOrange; assay: FRET or BRET; FLIM-FRET in live shNOD1 AGS cells transfected with NOD1-mOrange and caspase-1-GFP, stimulated with H. pylori 251; fall of the donor's fluorescence lifetime
full-length NOD1-FLAG = target: T2, full-length NOD1-FLAG (UniProt Q9Y239); assay: co-IP; lysates of transfected NOD1 KO AGS cells (stimulated with H. pylori or left untreated) immunoprecipitated with anti-FLAG antibody; blot with anti-FLAG and anti-caspase-1
T2 sequence: T1 sequence

| binding (NOD1-mOrange [1]) | binding (NOD1-mOrange [2]) | binding (full-length NOD1-FLAG) | Substance |
| --- | --- | --- | --- |
| no binding | binds |  | caspase-1-GFP (from UniProt P29466 1-404) |
|  |  | binds | endogenous caspase-1 (from UniProt P29466 1-404) |
